Laboratory results from US20090068207A1, “Compositions Containing Beta 2-Glycoprotein I-Derived Peptides for the Prevention and/or Treatment of Vascular Disease” (Vascular Biogenics Ltd., priority 2005, published 2009).

Experiments:
Type in all cases: in vivo
[1] = Body weight, plasma cholesterol and triglyceride after oral administration (ApoE-KO mice); details: for Cholesterol / Triglyceride / Weight: ApoE-KO mice
[2] = Body weight, plasma cholesterol and triglyceride after oral administration (LDL-RD mice); details: for Cholesterol / Triglyceride / Weight: mean ± S.E
[3] = Body weight, plasma cholesterol and triglyceride after nasal administration (LDL-RD mice); details: END, intranasal 10 μg/mouse every other day for 5 days, then Western diet
[4] = Body weight, plasma cholesterol and triglyceride after nasal administration (ApoE-KO mice); details: mean ± S.E
[5] = Body weight, plasma cholesterol and triglyceride after intraperitoneal immunization (LDL-RD mice); details: head 100 μg
[6] = Time 0, nasal 10 μg/mouse groups
[7] = Time 0, intraperitoneal immunization groups, mean ± S.E
[8] = End t = 16 wks, oral 50 μg/mouse, mean ± S.E
[9] = Start t = 0, oral 50 μg/mouse group, mean ± S.E

B1: β2GPI: beta2-glycoprotein I, species not stated at the place (human or bovine; FIG. 7 legend says bovine) (protein, UniProt P17690 20-345, looked up)
Beta-2-glycoprotein 1: GRTCPKPDELPFSTVVPLKRTYEPGEQIVFSCQPGYVSRGGIRRFTCPLTGLWPINTLKCMPRVCPFAGILENGTVRYTTFEYPNTISFSCHTGFYLKGASSAKCTEEGKWSPDLPVCAPITCPPPPIPKFASLSVYKPLAGNNSFYGSKAVFKCLPHHAMFGNDTVTCTEHGNWTQLPECREVRCPFPSRPDNGFVNHPANPVLYYKDTATFGCHETYSLDGPEEVECSKFGNWSAQPSCKASCKLSIKRATVIYEGERVAIQNKFKNGMLHGQKVSFFCKHKEKKCSYTEDAQCIDGTIEIPKCFKEHSSLAFWKTDASDVKPC
- influence on body weight, total cholesterol or triglycerides levels ([1]; oral 50 μg, adult male Apo-E KO mice): No significant influence
- influence on total cholesterol or triglycerides levels ([2]; oral, at either dose (500 or 50 μg)): No significant influence

B2: Human β2 GPI: human beta2-glycoprotein I (SEQ ID NO: 10) purified from serum (protein)
chain: MISPVLILFSSFLCHVAIAGRTCPKPDDLPFSTVVPLKTFYEPGEEITYSCKPGYVSRGGMRKFICPLTGLWPINTLKCTPRVCPFAGILENGAVRYTTFEYPNTISFSCNTGFYLNGADSAKCTEEGKWSPELPVCAPIICPPPSIPTFATLRVYKPSAGNNSLYRDTAVFECLPQHAMFGNDTITCTTHGNWTKLPECREVKCPFPSRPDNGFVNYPAKPTLYYKDKATFGCHDGYSLDGPEEIECTKLGNWSAMPSCKASCKLPVKKATVVYQGERVKIQEKFKNGMLHGDKVSFFCKNKEKKCSYTEDAQCIDGTIEVPKCFKEHSSLAFWKTDASDVKPC
- Weight ([3]; mean ± S.E): 29.2 ± 1.5 g
- Triglyceride ([3]; median): 380 mg/dL
- Cholesterol ([4]; End, nasal 10 μg/mouse): 308 ± 9 mg/dL
- Triglyceride ([4]; End, nasal 10 μg/mouse): 108 ± 4 mg/dL
- Weight ([4]; End, nasal 10 μg/mouse): 25.5 ± 0.4 g
- Cholesterol [4, 6]: 357 ± 13 mg/dL
- Triglyceride [4, 6]: 67 ± 5 mg/dL
- Weight [4, 6]: 20.0 ± 0.5 g
- Cholesterol ([5]; End, intraperitoneal with incomplete Freund's adjuvant, mean ± S.E): 1319 ± 136 mg/dL
- Triglyceride ([5]; End, intraperitoneal with incomplete Freund's adjuvant, median): 315 mg/dL
- Cholesterol [5, 7]: 202 ± 11 mg/dL
- Triglyceride [5, 7]: 77 ± 11 mg/dL
- Weight [5, 7]: 19.9 ± 1.0 g
- Weight ([5]; second weight line (End), intraperitoneal with incomplete Freund's adjuvant, mean ± S.E): 30.6 ± 1.1 g
- Cholesterol ([1]; End, oral 50 μg, 5 doses): 339 ± 11 mg/dL
- Triglyceride ([1]; End, oral 50 μg, 5 doses): 78 ± 3 mg/dL
- Weight ([1]; End, oral 50 μg, 5 doses): 25.6 ± 0.5 g
- Cholesterol ([1]; Time 0, oral 50 μg groups): 377 ± 24 mg/dL
- Triglyceride ([1]; Time 0, oral 50 μg groups): 86 ± 5 mg/dL
- Weight ([1]; Time 0, oral 50 μg groups): 24.5 ± 0.7 g
- Cholesterol ([2]; End, oral 50 μg): 1237 ± 71 mg/dL
- Triglyceride ([2]; End, oral 50 μg): 342 ± 51 mg/dL
- Weight ([2]; End, oral 50 μg): 32.0 ± 0.6 g
- Cholesterol ([2]; End, oral 100 μg): 1130 ± 84 mg/dL
- Triglyceride ([2]; End, oral 100 μg): 295 ± 37 mg/dL
- Weight ([2]; End, oral 100 μg): 26.5 ± 0.7 g
- Cholesterol ([2]; End, oral 500 μg): 1232 ± 92 mg/dL
- Triglyceride ([2]; End, oral 500 μg): 415 ± 62 mg/dL
- Weight ([2]; End, oral 500 μg): 31.4 ± 1.0 g
- Cholesterol ([2]; Start, oral 50 μg groups): 227 ± 14 mg/dL
- Triglyceride ([2]; Start, oral 50 μg groups): 212 ± 26 mg/dL
- Weight ([2]; Start, oral 50 μg groups): 26.4 ± 0.7 g
- Cholesterol ([2]; Start, oral 500 μg groups): 231 ± 16 mg/dL
- Triglyceride ([2]; Start, oral 500 μg groups): 182 ± 18 mg/dL
- Weight ([2]; Start, oral 500 μg groups): 27.1 ± 0.7 g
- Cholesterol ([2]; Time 0, oral 100 μg groups): 247 ± 9 mg/dL
- Triglyceride ([2]; Time 0, oral 100 μg groups): 254 ± 27 mg/dL
- Weight ([2]; Time 0, oral 100 μg groups): 20.0 ± 0.7 g

B3: B-β2 GPI: bovine beta2-glycoprotein I purified from serum (protein, UniProt P17690 20-345, looked up)
Beta-2-glycoprotein 1: GRTCPKPDELPFSTVVPLKRTYEPGEQIVFSCQPGYVSRGGIRRFTCPLTGLWPINTLKCMPRVCPFAGILENGTVRYTTFEYPNTISFSCHTGFYLKGASSAKCTEEGKWSPDLPVCAPITCPPPPIPKFASLSVYKPLAGNNSFYGSKAVFKCLPHHAMFGNDTVTCTEHGNWTQLPECREVRCPFPSRPDNGFVNHPANPVLYYKDTATFGCHETYSLDGPEEVECSKFGNWSAQPSCKASCKLSIKRATVIYEGERVAIQNKFKNGMLHGQKVSFFCKHKEKKCSYTEDAQCIDGTIEIPKCFKEHSSLAFWKTDASDVKPC
- Cholesterol ([2]; End, oral 50 μg): 1200 ± 76 mg/dL
- Triglyceride ([2]; End, oral 50 μg): 313 ± 51 mg/dL
- Weight ([2]; End, oral 50 μg): 30.8 ± 0.8 g
- Cholesterol ([2]; End, oral 500 μg): 1196 ± 75 mg/dL
- Triglyceride ([2]; End, oral 500 μg): 318 ± 55 mg/dL
- Weight ([2]; End, oral 500 μg): 29.8 ± 0.9 g
- Cholesterol ([2]; Start, oral 50 μg groups): 231 ± 14 mg/dL
- Triglyceride ([2]; Start, oral 50 μg groups): 179 ± 20 mg/dL
- Weight ([2]; Start, oral 50 μg groups): 26.4 ± 0.7 g
- Cholesterol ([2]; Start, oral 500 μg groups): 233 ± 15 mg/dL
- Triglyceride ([2]; Start, oral 500 μg groups): 178 ± 23 mg/dL
- Weight ([2]; Start, oral 500 μg groups): 25.7 ± 0.7 g

B4: B-β2GPI: head of Table 5; text and footnote say human β2GPI, 50 μg/mouse orally (protein, UniProt P02749 20-345, looked up)
Beta-2-glycoprotein 1: GRTCPKPDDLPFSTVVPLKTFYEPGEEITYSCKPGYVSRGGMRKFICPLTGLWPINTLKCTPRVCPFAGILENGAVRYTTFEYPNTISFSCNTGFYLNGADSAKCTEEGKWSPELPVCAPIICPPPSIPTFATLRVYKPSAGNNSLYRDTAVFECLPQHAMFGNDTITCTTHGNWTKLPECREVKCPFPSRPDNGFVNYPAKPTLYYKDKATFGCHDGYSLDGPEEIECTKLGNWSAMPSCKASCKVPVKKATVVYQGERVKIQEKFKNGMLHGDKVSFFCKNKEKKCSYTEDAQCIDGTIEVPKCFKEHSSLAFWKTDASDVKPC
- Cholesterol [1, 8]: 505 ± 42 mg/dL
- Triglyceride [1, 8]: 109 ± 9 mg/dL
- Weight [1, 8]: 29.6 ± 0.8 g
- Cholesterol [1, 9]: 360 ± 17 mg/dL
- Triglyceride [1, 9]: 71 ± 17 mg/dL
- Weight [1, 9]: 25.5 ± 0.4 g
